Assay: Human liver microsome stability
Format: in vitro ADME
Experimental: Metabolic Stability and Plasma Stability. Test compound Working solution: 5 μL of compound stock solution (10 mM in dimethyl sulfoxide (DMSO)) were diluted with 495 μL of DMSO (Working solution concentration: 100 μM, 100% DMSO). Propantheline bromide Working solution: 5 μL of Propantheline bromide stock solution (10 mM in H2O) were diluted with 495 μL of H2O (Working solution concentration: 100 μM, 100% H2O)

- Human Liver Microsome Stability Remaining(T = 60 min) (60 min, given as fraction): 0.00396
- Human Liver Microsome Stability CLint(liver) (human liver microsomes, scaled to liver): 157.5135 mL/min/kg
SMILES: CCCNCC(O)COc1ccccc1C(=O)CCc1ccccc1 (centres unmarked) [Propafenone, reference compound]
